These results are taken from PMC12040169 (PLOS Biology, 2025).

This is one part of the list.

This experiment concerns T1, CTL2-GFP (C. trachomatis L2/434/Bu, GFP-expressing).
T1 construct: L2/434/Bu, GFP-expressing
The arrangement: species or system HeLa; Intracellular C. trachomatis growth in HeLa cells, bulk GFP fluorescence relative to DMSO. The conditions noted are these: bulk GFP, single well; 28.5 h, 10 µM; inhibitor.
For the compound `CC(C)COc1ccc(-c2nonc2NC(=O)c2cccs2)cc1` [CBK299822], the “% of control remaining” value is 63.0959%.

On to `CCN1CC2(CCN(CCOc3ccccc3)CC2)c2ccccc21` [CBK122705], for which the “% of control remaining” value was 116.174%.

In the case of `O=C(O)c1ccc(NS(=O)(=O)c2ccc3c(c2)C(=O)c2ccccc2C3=O)cc1` [CBK299828], the “% of control remaining” value is 88.5023%.

For the compound `O=C1NC2(CCCC2)N=C1c1ccc(Cl)cc1Cl` [CBK288042], the “% of control remaining” value turned out to be 132.884%.

As to `COc1ccc(C(NC(=O)C2CCN(CCn3cnc4c3c(=O)n(C)c(=O)n4C)CC2)c2ccco2)cc1` (centres unmarked) [CBK148308], the “% of control remaining” value amounted to 165.053%.

For the compound `O=C(NCc1cccc2ccccc12)N1CCN(c2ccccc2)CC1` [CBK155175], the “% of control remaining” value is recorded as 132.447%.

On to `c1ccc(OCCOc2nccnc2-c2cc3ccccc3s2)cc1` [CBK106787], for which the “% of control remaining” value turned out to be 116.873%.

With `COC(=O)N1CC2(CCCCC2NCc2c[nH]c(C)n2)c2ccccc21` (centres unmarked) [CBK083547T], the “% of control remaining” value came out at 166.203%.

With `CC(=O)N1CCc2sccc2C1c1ccc(NCc2ccc(F)cc2)cc1` (centres unmarked) [CBK286442], the “% of control remaining” value was 117.982%.

For the compound `COCc1cccc(-c2ncc(OCc3ccccn3)nc2N)c1` [CBK145108], the “% of control remaining” value turned out to be 100%.

Take `COCc1ccc(C(=O)N2CCC(c3cc4ncccc4[nH]3)CC2)o1` [CBK283373]: the “% of control remaining” value came out at 127.412%.

Turning to `COCCNC(=O)CN(C)c1nc(-c2ccncc2)nc2ccccc12` [CBK305611], the “% of control remaining” value is recorded as 104.077%.

Turning to `O=C(O)CCC(=O)Nc1ccc(-c2ccc([N+](=O)[O-])cc2)cc1` [CBK261637], the “% of control remaining” value is listed as 93.328%.

On to `CCN(CC)CCN1C(=O)C(O)=C(C(=O)c2ccc(Cl)cc2)C1c1cccc(Br)c1` (centres unmarked) [CBK265165], for which the “% of control remaining” value worked out at 107.351%.

`CC(=O)Nc1cccc2c1NSN2` [CBK027082]: the “% of control remaining” value is 123.039%.

For `Cc1ccccc1Cn1nc(C)c(NC(=O)c2nc3n(n2)C(C(F)F)CC(C)N3)c1C` (centres unmarked) [CBK267633], the “% of control remaining” value is 104.947%.

As for `CSc1nccc(OCCOc2nccnc2N2CCNCC2)n1` [CBK000718G], the “% of control remaining” value came to 131.576%.

Turning to `CC1CN(C(=O)OC(C)(C)C)CCN1c1nc2ccccc2nc1O` (centres unmarked) [CBK003877C], the “% of control remaining” value came out at 110.414%.

`COc1ccc(-c2cc(C(=O)N[C@H]3CCN(Cc4ccccc4)C3)cnc2-c2ccccc2)cn1` [CBK037605]: the “% of control remaining” value was 103.568%.

As for `COc1cccc(C2C(C(=O)c3ccc(Br)cc3)=C(O)C(=O)N2CCCN2CCOCC2)c1` (centres unmarked) [CBK264862], the “% of control remaining” value is 77.1765%.

Turning to `CC(=O)c1ccc(-c2cc(C(=O)Nc3ccc4c(c3)OCCO4)cnc2-c2ccc(Cl)cc2)s1` [CBK036627], the “% of control remaining” value was 91.6146%.

With `COc1ccc(C(=O)N2CCN(Cc3ccccc3)CC2)c(OC)n1` [CBK200169], the “% of control remaining” value is on record as 124.052%.

In the case of `COCCn1c(=O)n(Cc2ccc(F)cc2)c2cccnc21` [CBK283886], the “% of control remaining” value was determined as 147.258%.

As to `COc1cccc(NC(=O)CC(CN2CCN(CCC#N)CC2)C(=O)O)c1` (centres unmarked) [CBK286801], the “% of control remaining” value is given as 135.454%.

`COc1cccc(/C=N/NC(=O)C(=O)NCc2ccccn2)c1` [CBK262268]: the “% of control remaining” value amounted to 119.909%.

Turning to `NNC(=O)c1cc(-c2ccc(-c3ccccc3)cc2)nc2ccc(Br)cc12` [CBK261760], the “% of control remaining” value was found to be 88.7612%.

For the compound `CCOc1cc(NC2CCN(C(=O)OC(C)(C)C)CC2)ncn1` [CBK306288], the “% of control remaining” value is 105.006%.

`CCCc1cc(C(N)=O)c(NC(=O)c2cc(-c3ccc(C)o3)nc3ccccc23)s1` [CBK267766C]: the “% of control remaining” value amounted to 84.5116%.

On to `Cc1ccc(C)c(NS(=O)(=O)c2cc(C(=O)NCc3ccccn3)ccc2C)c1` [CBK269110], for which the “% of control remaining” value stood at 109.758%.

Regarding `Cc1cc(Br)c(NC(=O)COc2ccc(/C=C(\C#N)C(N)=S)cc2)cc1C` [CBK269014], the “% of control remaining” value came out at 142.509%.

Turning to `O=C(CN(c1ccccc1)S(=O)(=O)c1ccccc1[N+](=O)[O-])Nc1ccc(C(F)(F)F)cc1` [CBK267137], the “% of control remaining” value was 78.7999%.

Take `Cc1ccc(CNC(=O)Cn2cc(-c3ccc(CN4CCC(C)CC4)cc3)nn2)cc1` [CBK164706]: the “% of control remaining” value is on record as 122.086%.

For `COc1cc(C2NC(=O)N(CCc3ccccc3)C(c3ccccc3)=C2C(C)=O)ccc1O` (centres unmarked) [CBK269024], the “% of control remaining” value was 121.515%.

On to `Cn1nc(C(C)(C)C)cc1C(=O)N1CCC(N2C(=O)OCC2(C)C)CC1` [CBK044234], for which the “% of control remaining” value was found to be 119.868%.

Regarding `Nc1cccc(-c2cc(Nc3cccc(OCc4ccccc4)c3)ncn2)c1` [CBK090915], the “% of control remaining” value was found to be 132.957%.

As to `CN(C)CCP(=O)(c1ccccc1)c1ccccc1` [CBK026596], the “% of control remaining” value came out at 103.868%.

For the compound `CC(=O)NC[C@H]1CN(c2ccc(-c3nnc(C(C)O)s3)c(F)c2)C(=O)O1` (some centres unmarked) [CBK017968], the “% of control remaining” value turned out to be 11.2033%.

With `COc1ccc(-c2noc(CSc3nnc(-c4ccncc4)n3C)n2)cc1` [CBK268245], the “% of control remaining” value is reported as 177.249%.

Turning to `O=C(O)CCNC(=O)c1ccc(NS(=O)(=O)c2ccc(C3CCCCC3)cc2)cc1` [CBK296991], the “% of control remaining” value is 129.314%.

Turning to `C[C@H](c1ccccc1)n1c(=O)[nH]c2ncc(-c3ccco3)nc21` [CBK064415], the “% of control remaining” value was 149.784%.

For `Cc1ccc(S(=O)(=O)Nc2ccnc(-c3ccc(CN4C(=O)CSC4=O)cc3)n2)cc1` [CBK067925], the “% of control remaining” value came to 124.884%.

For the compound `Cc1nc2ccccc2[nH]/c1=N/O` [CBK018103], the “% of control remaining” value is recorded as 124.749%.

`CCc1ccc(OCC(=O)Nc2ccc3oc(-c4ccc(F)cc4Cl)nc3c2)cc1` [CBK265010]: the “% of control remaining” value is listed as 100%.

Regarding `CCN(CC)C(=O)CN1C(=O)C2(Nc3ccccc3C(=O)N2c2ccc(F)cc2)c2ccccc21` (centres unmarked) [CBK103751], the “% of control remaining” value was determined as 91.0053%.

Take `COc1ccc(Cn2nnnc2C(CC(C)C)N2CCC(C(N)=O)CC2)cc1` (centres unmarked) [CBK084783]: the “% of control remaining” value came out at 113.651%.

In the case of `CCn1c(CNC(=O)c2cc(C(C)C)on2)nc2ccccc21` [CBK281393], the “% of control remaining” value is listed as 146.716%.

Regarding `CC(NC(=O)c1cnc(-c2ccc(Cl)cc2)c(-c2ccc(O)cc2)c1)c1ccc(F)cc1` (centres unmarked) [CBK036751], the “% of control remaining” value is 163.358%.

Take `O=C(O)c1ccc(N2C(=O)CC(c3ccccc3)CC2=O)cc1` [CBK291169]: the “% of control remaining” value is listed as 149.066%.

`CCN(Cc1ncc[nH]1)[C@H]1CCO[C@@H](c2ccccc2-c2ccc(OC)cc2)C1` [CBK285842]: the “% of control remaining” value came to 128.444%.

Consider `Cc1nn(C)cc1CN(Cc1ccccc1)CC1CCCO1` (centres unmarked) [CBK283264], for which the “% of control remaining” value is recorded as 117.576%.

With `O=C(Cc1ccsc1)N1CCC2(CCCNC2)C1` (centres unmarked) [CBK137153C], the “% of control remaining” value came to 112.404%.

`CCCn1c(C)nnc1CN(CC1CCCO1)C1CCCC1` (centres unmarked) [CBK304465]: the “% of control remaining” value amounted to 184.549%.

As for `CC(Sc1nc2ccc(Cl)cc2o1)C(=O)N1CCOCC1` (centres unmarked) [CBK305164], the “% of control remaining” value was determined as 122.09%.

Consider `COCc1cc(C)nc(SCC(=O)O)c1C#N` [CBK270463], for which the “% of control remaining” value is reported as 109.517%.

With `COCCCn1c(SCc2csc(-c3ccc(C)cc3)n2)n[nH]c1=O` [CBK295657], the “% of control remaining” value came out at 103.668%.

Consider `O=c1cc(CN2CCC(Oc3nccnc3OCc3ccc(Cl)c(Cl)c3)CC2)[nH]c(=O)[nH]1` [CBK153784], for which the “% of control remaining” value turned out to be 111.176%.

For the compound `CCNC(=O)COc1ccc(C=Cc2nc(-c3ccccc3)c(C(=O)O)s2)cc1OCC` [CBK296644], the “% of control remaining” value was 150.422%.

On to `CN1CCN(C(=O)c2cnn(-c3ccccc3)c2NC(=O)c2ccc(F)cc2)CC1` [CBK265198], for which the “% of control remaining” value turned out to be 137.613%.

With `O=C(c1cncnc1)N1Cc2ccccc2C1` [CBK200223], the “% of control remaining” value was determined as 67.768%.

As to `Cc1c(C(=O)N2CCNCC2C)nnn1-c1ccc2ncccc2c1` (centres unmarked) [CBK304473], the “% of control remaining” value came out at 146.794%.

Consider `CNC(=O)C1(Cc2ccccc2-c2ccccc2)CCN(C(=O)c2cccc(OC)c2)CC1` [CBK285922], for which the “% of control remaining” value stood at 126.815%.

Turning to `O=C(O)C1Nc2ccc(Oc3ccccc3)cc2C2C=CCC12` (centres unmarked) [CBK286542], the “% of control remaining” value was found to be 122.774%.

Turning to `O=C(C1CCN(S(=O)(=O)c2ccc(F)cc2)C1)N1CCN(C2CCCC2)CC1` (centres unmarked) [CBK285703], the “% of control remaining” value was 129.516%.

Regarding `O=C(c1cc(F)c(F)cc1F)N1CCC2(CCCN(C(=O)c3cccc4[nH]ccc34)C2)C1` (centres unmarked) [CBK131544], the “% of control remaining” value is on record as 113.45%.

Regarding `CC(=O)OCc1nc2cc(F)c(F)cc2[nH]1` [CBK110117], the “% of control remaining” value came to 144.53%.

For `CC(=O)N1C[C@H]2CCCN(S(=O)(=O)c3cccs3)[C@H]2C1` [CBK285275], the “% of control remaining” value is 118.635%.

Take `CCCCN(C)c1c(CC)nc2ccc(C(=O)NCCN3CCCC3)cn12` [CBK145440]: the “% of control remaining” value was determined as 127.538%.

`CCOC(=O)c1cc2c3ccccc3n(CC)c2nc1N` [CBK100822]: the “% of control remaining” value is 137.918%.

With `Cc1cccn2c(CN3CCCC(O)C3)c(C(=O)N3CCCCC3)nc12` (centres unmarked) [CBK307342], the “% of control remaining” value came out at 116.438%.

As to `CC(NC(=O)CCc1cnn(C)c1)c1nc(-c2ccncc2)cs1` (centres unmarked) [CBK305496], the “% of control remaining” value is 126.163%.

As to `O=C(Cc1ccsc1)N1CCC[C@@H]1Cn1c(=O)oc2ccccc21` [CBK284530], the “% of control remaining” value came to 155.454%.

For the compound `Cc1ncccc1OC1(C(=O)NCc2n[nH]c3c2CCC3)CCNCC1` [CBK307057], the “% of control remaining” value came to 140.547%.

`CCN(CC)CCN1CCN(c2cc(-c3cccc4ccccc34)ncn2)CC1` [CBK091196]: the “% of control remaining” value is listed as 199.623%.

`OC(CSc1ccccc1)CN1CCC(Nc2nccc(C(F)(F)F)n2)CC1` (centres unmarked) [CBK074648]: the “% of control remaining” value was determined as 126.921%.

As for `CN(C)CC(C)(C)CNC=C1C(=O)CC(C)(C)CC1=O` [CBK262046], the “% of control remaining” value was determined as 100%.

Consider `CC1=CC(C)C(C(=O)O)C(C(=O)NCc2cccnc2)C1` (centres unmarked) [CBK293964], for which the “% of control remaining” value was 126.845%.

On to `O=C(c1nccs1)C1CCN(C(=O)C2(c3ccccc3)CC2)CC1` [CBK284206], for which the “% of control remaining” value is 114.443%.
